Among the data in paper PMC11546224 are binding values, retold here.

The chains behind the UniProt entries cited, without tags or fusion partners.
UniProt Q00613: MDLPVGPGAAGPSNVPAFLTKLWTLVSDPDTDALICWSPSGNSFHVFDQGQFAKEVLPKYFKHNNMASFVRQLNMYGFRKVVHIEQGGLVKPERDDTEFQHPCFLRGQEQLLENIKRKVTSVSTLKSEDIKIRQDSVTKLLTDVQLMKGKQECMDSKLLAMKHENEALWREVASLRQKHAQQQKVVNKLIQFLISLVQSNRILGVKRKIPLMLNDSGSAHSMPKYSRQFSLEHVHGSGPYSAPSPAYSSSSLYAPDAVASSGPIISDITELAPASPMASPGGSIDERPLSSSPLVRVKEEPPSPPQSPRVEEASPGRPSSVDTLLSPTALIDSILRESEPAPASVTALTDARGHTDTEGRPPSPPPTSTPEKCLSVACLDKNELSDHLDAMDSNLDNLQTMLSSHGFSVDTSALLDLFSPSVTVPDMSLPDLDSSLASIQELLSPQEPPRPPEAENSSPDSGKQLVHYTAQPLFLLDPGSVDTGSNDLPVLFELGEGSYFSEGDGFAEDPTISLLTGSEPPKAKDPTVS

Test [1] has as its target T1, dihydrolipoamide S-acetyltransferase (DLAT) (human (endogenous in MIA PaCa-2)) (UniProt P10515).
T1 sequence: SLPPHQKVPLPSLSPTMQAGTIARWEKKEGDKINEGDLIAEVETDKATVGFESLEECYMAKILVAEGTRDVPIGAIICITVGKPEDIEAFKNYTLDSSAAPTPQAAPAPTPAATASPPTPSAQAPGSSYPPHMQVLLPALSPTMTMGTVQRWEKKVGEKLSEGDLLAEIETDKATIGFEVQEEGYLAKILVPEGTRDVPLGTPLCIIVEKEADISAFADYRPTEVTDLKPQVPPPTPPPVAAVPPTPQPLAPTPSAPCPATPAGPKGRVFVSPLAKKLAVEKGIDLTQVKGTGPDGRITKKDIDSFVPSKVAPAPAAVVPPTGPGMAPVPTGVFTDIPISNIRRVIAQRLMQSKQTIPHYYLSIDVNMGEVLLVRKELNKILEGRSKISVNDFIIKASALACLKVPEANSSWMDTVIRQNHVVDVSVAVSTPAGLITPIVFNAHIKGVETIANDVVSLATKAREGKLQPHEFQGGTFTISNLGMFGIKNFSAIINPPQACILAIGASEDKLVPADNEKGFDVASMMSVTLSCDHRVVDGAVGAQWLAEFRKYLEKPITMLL
The experiment in a line: co-IP; 1 mg whole cell lysate (1% Triton X-100, 100 mM NaCl, 30 mM Tris-HCl pH 7.6) incubated with anti-DLAT or HSF1 antibodies at 4 °C overnight, Protein G MagBeads, immunoblotting; normal rabbit IgG as negative control; cells without or with copper treatment. Background: A western blot detects proteins with antibodies after separation by electrophoresis.

The target in test [2] is T1, dihydrolipoamide S-acetyltransferase (DLAT) (human (endogenous in MIA PaCa-2)). Briefly: immunoprecipitation and nonreducing SDS-PAGE; HSF1-overexpressing HSF1-deficient MIA PaCa-2 cells treated with 1 mM CuCl2 for 12 h; beads boiled in loading buffer without β-mercaptoethanol, nonreducing SDS-PAGE, Western blotting.

No constants are given. Whether binding was seen depends on the method and setting. For some assays here: In cells and extracts the contact can be indirect. Some entries that bind do so weakly or less than the wild type.

For the molecule “heat shock factor 1 (HSF1) (from UniProt Q00613 1-529)”, the binding entry in test [1] is listed as “binds”.

B1: dihydrolipoamide S-acetyltransferase (DLAT) (enzyme, UniProt P10515 87-647)
chain: T1 sequence
In the case of B1, in test [2], the binding result is “binds”.
